From the supplement of paper PMC12819154, “High-throughput peptide-centric local stability assay extends protein–ligand identification to membrane proteins, tissues and bacteria” (Nature Structural & Molecular Biology, 2025)
The list shows a part of the results. Most entries show no effect beyond the scatter of the controls.

The chains behind the UniProt entries cited, without tags or fusion partners. Where a name states a change or a piece, a line headed by the entry shows the natural chain unless it says otherwise.
UniProt Q6EEV6: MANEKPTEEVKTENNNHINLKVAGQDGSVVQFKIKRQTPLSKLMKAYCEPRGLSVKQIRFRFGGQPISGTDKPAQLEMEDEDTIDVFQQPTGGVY
UniProt Q6NXS1: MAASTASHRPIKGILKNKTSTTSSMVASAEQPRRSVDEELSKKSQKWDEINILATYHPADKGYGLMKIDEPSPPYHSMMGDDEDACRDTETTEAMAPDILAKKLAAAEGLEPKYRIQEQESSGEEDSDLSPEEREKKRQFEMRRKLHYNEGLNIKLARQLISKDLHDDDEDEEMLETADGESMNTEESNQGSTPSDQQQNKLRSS
UniProt Q6L9T8, whole entry: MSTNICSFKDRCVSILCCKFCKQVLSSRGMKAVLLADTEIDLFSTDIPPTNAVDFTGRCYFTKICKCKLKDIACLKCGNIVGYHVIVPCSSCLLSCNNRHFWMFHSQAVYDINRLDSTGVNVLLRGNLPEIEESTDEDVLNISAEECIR
UniProt Q6UWH6: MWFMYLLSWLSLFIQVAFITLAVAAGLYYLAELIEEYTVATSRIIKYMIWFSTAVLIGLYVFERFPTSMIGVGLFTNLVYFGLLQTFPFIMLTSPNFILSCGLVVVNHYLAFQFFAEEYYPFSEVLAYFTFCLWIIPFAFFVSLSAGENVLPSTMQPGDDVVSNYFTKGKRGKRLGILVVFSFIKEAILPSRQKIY
UniProt Q6PIW4: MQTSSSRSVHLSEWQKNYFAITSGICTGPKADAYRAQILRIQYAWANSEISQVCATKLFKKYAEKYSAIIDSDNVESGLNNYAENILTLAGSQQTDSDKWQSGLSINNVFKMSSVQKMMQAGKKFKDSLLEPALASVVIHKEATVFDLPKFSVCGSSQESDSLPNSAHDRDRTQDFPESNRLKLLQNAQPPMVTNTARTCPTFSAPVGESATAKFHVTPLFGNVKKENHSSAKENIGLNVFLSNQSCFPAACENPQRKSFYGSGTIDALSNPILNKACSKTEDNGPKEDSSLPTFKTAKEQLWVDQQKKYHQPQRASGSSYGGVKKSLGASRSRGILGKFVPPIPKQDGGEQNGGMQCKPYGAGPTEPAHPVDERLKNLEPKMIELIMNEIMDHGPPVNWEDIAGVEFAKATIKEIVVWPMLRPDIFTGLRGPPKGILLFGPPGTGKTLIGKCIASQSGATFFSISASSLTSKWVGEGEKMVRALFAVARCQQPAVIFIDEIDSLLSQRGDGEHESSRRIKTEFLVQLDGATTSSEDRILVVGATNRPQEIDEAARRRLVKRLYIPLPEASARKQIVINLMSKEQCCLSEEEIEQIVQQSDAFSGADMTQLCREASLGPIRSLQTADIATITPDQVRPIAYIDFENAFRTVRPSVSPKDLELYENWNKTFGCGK
UniProt Q6PJT7: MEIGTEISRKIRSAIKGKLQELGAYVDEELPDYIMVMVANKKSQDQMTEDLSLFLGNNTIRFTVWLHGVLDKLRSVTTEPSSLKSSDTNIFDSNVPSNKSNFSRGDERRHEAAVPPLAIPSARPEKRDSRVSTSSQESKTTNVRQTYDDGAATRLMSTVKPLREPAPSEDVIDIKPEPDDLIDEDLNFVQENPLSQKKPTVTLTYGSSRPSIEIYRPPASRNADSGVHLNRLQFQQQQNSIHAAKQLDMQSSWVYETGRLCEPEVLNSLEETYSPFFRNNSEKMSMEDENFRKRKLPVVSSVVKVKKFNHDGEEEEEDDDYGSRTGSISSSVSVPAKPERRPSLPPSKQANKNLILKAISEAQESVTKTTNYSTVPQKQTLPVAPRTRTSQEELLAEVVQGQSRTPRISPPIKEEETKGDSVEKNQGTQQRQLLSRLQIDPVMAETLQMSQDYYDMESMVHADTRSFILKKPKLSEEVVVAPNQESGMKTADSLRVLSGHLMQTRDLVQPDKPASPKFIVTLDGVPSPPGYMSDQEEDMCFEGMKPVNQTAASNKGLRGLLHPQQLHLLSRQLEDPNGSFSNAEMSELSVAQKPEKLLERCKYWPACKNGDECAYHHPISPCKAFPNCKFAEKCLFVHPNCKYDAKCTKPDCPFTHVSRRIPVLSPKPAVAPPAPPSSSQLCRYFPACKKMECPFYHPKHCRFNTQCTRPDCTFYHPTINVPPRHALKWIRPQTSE
UniProt Q6SPF0: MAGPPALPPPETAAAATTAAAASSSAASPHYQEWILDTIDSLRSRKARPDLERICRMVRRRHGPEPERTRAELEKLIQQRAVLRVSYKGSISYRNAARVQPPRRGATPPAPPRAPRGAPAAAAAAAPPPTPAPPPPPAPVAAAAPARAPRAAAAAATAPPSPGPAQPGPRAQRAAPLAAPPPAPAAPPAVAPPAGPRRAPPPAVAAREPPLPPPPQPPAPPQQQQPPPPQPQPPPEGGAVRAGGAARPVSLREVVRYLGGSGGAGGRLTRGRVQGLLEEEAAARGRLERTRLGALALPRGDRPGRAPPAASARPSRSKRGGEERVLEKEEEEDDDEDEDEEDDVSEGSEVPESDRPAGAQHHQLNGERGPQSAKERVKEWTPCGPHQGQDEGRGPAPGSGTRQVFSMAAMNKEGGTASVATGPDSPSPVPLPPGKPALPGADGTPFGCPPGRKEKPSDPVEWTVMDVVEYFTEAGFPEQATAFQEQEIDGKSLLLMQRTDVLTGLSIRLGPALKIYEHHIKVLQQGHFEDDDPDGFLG
UniProt Q6PID6, whole entry: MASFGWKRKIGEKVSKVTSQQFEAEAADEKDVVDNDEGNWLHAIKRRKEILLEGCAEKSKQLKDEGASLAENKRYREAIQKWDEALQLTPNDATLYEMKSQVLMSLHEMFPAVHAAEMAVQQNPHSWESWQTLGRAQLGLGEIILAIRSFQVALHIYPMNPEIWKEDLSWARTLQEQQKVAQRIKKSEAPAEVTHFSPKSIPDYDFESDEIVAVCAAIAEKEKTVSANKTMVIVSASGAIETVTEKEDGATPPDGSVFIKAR
UniProt Q6UX07: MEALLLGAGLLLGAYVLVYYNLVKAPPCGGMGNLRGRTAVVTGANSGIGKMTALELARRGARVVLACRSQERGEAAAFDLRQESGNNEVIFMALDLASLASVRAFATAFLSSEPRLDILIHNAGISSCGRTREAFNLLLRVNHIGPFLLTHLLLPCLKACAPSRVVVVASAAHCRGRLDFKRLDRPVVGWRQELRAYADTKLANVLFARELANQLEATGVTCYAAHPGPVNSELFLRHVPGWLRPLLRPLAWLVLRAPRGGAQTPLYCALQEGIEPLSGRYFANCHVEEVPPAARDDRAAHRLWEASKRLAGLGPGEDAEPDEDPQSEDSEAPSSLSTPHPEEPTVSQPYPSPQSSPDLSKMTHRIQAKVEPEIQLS
UniProt Q6IQ26: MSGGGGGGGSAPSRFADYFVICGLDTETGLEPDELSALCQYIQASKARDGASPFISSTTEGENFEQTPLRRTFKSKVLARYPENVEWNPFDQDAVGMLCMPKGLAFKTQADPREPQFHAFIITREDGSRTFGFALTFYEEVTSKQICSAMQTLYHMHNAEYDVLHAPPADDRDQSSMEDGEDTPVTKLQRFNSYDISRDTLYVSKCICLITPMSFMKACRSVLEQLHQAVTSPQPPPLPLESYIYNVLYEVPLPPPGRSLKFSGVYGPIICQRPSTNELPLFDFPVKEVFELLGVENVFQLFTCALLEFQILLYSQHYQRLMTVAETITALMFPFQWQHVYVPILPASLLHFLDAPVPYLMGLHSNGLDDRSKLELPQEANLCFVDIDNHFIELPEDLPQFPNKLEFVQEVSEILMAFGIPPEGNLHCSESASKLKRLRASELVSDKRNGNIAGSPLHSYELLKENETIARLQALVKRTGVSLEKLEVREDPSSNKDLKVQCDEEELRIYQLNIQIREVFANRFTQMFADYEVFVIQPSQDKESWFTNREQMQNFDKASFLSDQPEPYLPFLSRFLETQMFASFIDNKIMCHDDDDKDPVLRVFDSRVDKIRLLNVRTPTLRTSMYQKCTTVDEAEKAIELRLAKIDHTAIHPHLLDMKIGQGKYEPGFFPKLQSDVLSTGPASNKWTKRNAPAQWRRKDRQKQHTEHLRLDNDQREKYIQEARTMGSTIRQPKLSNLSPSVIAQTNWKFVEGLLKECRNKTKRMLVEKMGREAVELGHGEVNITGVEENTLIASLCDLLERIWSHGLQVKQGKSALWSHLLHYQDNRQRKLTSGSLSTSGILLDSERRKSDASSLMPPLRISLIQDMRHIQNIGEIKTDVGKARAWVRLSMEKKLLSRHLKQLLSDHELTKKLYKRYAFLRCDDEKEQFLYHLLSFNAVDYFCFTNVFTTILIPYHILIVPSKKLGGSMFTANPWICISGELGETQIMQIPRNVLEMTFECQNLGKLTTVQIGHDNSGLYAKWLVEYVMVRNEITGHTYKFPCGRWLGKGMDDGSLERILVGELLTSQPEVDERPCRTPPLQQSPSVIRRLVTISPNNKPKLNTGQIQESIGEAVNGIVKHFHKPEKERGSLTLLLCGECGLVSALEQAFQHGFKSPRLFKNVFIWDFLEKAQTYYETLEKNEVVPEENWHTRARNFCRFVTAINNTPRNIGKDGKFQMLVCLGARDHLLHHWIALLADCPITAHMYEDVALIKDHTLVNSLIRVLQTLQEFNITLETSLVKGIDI
UniProt Q6PL18: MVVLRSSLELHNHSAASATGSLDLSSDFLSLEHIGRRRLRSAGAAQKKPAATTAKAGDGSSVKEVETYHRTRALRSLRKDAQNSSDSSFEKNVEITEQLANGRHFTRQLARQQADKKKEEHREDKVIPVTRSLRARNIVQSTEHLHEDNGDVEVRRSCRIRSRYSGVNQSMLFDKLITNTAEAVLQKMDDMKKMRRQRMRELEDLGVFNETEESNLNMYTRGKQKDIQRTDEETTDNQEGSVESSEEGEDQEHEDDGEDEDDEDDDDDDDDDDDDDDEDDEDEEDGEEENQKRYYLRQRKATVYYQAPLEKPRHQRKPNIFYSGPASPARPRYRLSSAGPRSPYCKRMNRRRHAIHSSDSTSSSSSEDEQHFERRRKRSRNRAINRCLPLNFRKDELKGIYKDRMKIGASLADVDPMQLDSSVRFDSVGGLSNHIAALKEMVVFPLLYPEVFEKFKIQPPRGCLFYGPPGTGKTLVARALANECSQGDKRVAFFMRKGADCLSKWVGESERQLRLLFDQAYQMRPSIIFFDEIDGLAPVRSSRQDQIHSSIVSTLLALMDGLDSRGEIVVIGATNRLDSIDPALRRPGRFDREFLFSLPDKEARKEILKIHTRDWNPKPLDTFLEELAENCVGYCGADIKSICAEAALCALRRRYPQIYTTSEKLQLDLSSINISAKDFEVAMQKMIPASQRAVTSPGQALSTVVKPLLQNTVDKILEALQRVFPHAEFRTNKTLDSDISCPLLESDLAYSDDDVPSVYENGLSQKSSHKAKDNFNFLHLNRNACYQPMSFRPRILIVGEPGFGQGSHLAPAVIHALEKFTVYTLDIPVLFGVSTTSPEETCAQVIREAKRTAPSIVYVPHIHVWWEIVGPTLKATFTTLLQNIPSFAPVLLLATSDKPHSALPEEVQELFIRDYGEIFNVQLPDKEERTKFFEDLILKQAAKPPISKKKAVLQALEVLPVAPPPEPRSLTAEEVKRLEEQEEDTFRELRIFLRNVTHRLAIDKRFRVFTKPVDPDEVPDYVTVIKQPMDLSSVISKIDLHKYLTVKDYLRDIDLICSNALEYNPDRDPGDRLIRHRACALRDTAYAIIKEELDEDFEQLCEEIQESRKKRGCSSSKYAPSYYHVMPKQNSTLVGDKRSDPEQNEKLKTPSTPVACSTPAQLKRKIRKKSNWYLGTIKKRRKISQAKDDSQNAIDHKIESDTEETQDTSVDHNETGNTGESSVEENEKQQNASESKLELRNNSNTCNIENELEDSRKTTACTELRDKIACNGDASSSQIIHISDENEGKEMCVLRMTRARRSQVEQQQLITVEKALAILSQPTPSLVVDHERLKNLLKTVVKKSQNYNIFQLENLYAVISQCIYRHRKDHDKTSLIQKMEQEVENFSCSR
UniProt Q6UWZ7: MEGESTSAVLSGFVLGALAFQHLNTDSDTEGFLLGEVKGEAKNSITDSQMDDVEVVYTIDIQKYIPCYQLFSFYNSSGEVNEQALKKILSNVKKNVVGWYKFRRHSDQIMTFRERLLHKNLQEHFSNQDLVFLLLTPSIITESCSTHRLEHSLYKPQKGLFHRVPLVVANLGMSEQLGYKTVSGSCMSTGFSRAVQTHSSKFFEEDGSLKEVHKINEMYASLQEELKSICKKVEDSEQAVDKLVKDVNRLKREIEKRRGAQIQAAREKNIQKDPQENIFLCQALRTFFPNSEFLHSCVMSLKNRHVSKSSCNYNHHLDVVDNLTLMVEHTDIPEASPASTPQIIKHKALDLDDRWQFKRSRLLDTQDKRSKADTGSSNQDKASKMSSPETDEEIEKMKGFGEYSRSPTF
UniProt Q66PJ3: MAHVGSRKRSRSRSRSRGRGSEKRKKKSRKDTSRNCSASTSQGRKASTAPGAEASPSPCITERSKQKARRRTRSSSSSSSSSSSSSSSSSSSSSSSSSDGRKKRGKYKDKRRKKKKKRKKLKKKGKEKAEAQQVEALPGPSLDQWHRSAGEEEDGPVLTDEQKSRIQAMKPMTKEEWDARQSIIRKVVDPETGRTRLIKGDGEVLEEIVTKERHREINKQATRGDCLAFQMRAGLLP

compound: CN[C@@H]1C[C@H]2O[C@@](C)([C@@H]1OC)n1c3ccccc3c3c4c(c5c6ccccc6n2c5c31)C(=O)NC4 [staurosporine]; assay: log2 fold change of tryptic peptide abundance, ligand vs vehicle (limited proteolysis) (log2 ratio); higher = more trypsin-susceptible (destabilized); details: ligand concentration: 20 uM; sample: K562 cleared lysate; digestion: 4 min, 22 C (HT-PELSA RT4min, Orbitrap Astral)

| Target | log2 fold change |
| --- | --- |
| UniProt Q6EEV6 (peptide sequence: VAGQDGSVVQFK, peptide start residue: 22) | -0.0301 |
| UniProt Q6NXS1 (peptide sequence: KLAAAEGLEPK, peptide start residue: 103) | 0.284 |
| PRPF8 (peptide sequence: QRVESHFDLELR, peptide start residue: 675) (UniProt Q6P2Q9) | -0.175 |
| RCSD1 (peptide sequence: EEKPAGEEAEMEK, peptide start residue: 301) (UniProt Q6JBY9) | -0.124 |
| TRAF7 (peptide sequence: DASMLNDELSHINAR, peptide start residue: 357) (UniProt Q6Q0C0) | -0.08 |
| RICTOR (peptide sequence: DVLFTDTITMK, peptide start residue: 1357) (UniProt Q6R327) | 0.343 |
| HEATR6 (peptide sequence: HMGSIQAPTGDTARR, peptide start residue: 1138) (UniProt Q6AI08) | 0.276 |
| LMBRD2 (peptide sequence: ESNFSDVNTNR, peptide start residue: 622) (UniProt Q68DH5) | 0.021 |
| UniProt Q6L9T8 (peptide sequence: LDSTGVNVLLR, peptide start residue: 115) | 0.0924 |
| ANKRD12 (peptide sequence: KENEPEAEKTHLFAK, peptide start residue: 387) (UniProt Q6UB98) | 0.797 |
| DENND4C (peptide sequence: MIEDKGPR, peptide start residue: 1) (UniProt Q5VZ89) | -0.447 |
| LIN54 (peptide sequence: ADSNTTVKPAFPSGLQK, peptide start residue: 85) (UniProt Q6MZP7) | -0.328 |
| UniProt Q6UWH6 (peptide sequence: RLGILVVFSFIK, peptide start residue: 174) | 0.364 |
| ZFP1 (peptide sequence: NQTPIEER, peptide start residue: 75) (UniProt Q6P2D0) | -0.102 |
| FIGNL1 (peptide sequence: FKDSLLEPALASVVIHK, peptide start residue: 125) (UniProt Q6PIW4) | 0.304 |
| UniProt Q6ZMI0 (peptide sequence: ILLSSTESR, peptide start residue: 550) | 0.448 |
| ZC3H14 (peptide sequence: HEAAVPPLAIPSARPEKR, peptide start residue: 110) (UniProt Q6PJT7) | -0.309 |
| UniProt Q69YN4 (peptide sequence: QNTSRPPSMHVDDFVAAESK, peptide start residue: 1644) | -0.211 |
| BICRAL (peptide sequence: MFNQEER, peptide start residue: 797) (UniProt Q6AI39) | 0.359 |

| Target | log2 fold change |
| --- | --- |
| SAMD1 (peptide sequence: VKEWTPCGPHQGQDEGR, peptide start residue: 377) (UniProt Q6SPF0) | 0.559 |
| WASH2P (peptide sequence: QKEQEQVR, peptide start residue: 375) (UniProt Q6VEQ5) | 0.125 |
| ZFYVE26 (peptide sequence: YSEIQQLLK, peptide start residue: 2419) (UniProt Q68DK2) | -0.551 |
| KAZN (peptide sequence: VQLAQKEQELAR, peptide start residue: 122) (UniProt Q674X7) | -0.272 |
| ZMYM4 (peptide sequence: LDKPHKDLDSR, peptide start residue: 183) (UniProt Q5VZL5) | 0.569 |
| RINT1 (peptide sequence: MQLEEQVLTISSEIPKR, peptide start residue: 86) (UniProt Q6NUQ1) | 0.153 |
| UniProt Q6UXN9 (peptide sequence: YTHAANTVVYSSNK, peptide start residue: 71) | -0.207 |
| FAM111B (peptide sequence: CSSTFKLKSEVNK, peptide start residue: 50) (UniProt Q6SJ93) | 0.146 |
| TTC33 (peptide sequence: QLKDEGASLAENKR, peptide start residue: 61) (UniProt Q6PID6) | 0.182 |
| UniProt Q69YQ0 (peptide sequence: PENSSSASTGGK, peptide start residue: 28) | -1.31 |
| DHRS13 (peptide sequence: VVVVASAAHCR, peptide start residue: 165) (UniProt Q6UX07) | -0.679 |
| SLC30A6 (peptide sequence: TGFTNIPSR, peptide start residue: 441) (UniProt Q6NXT4) | -0.259 |
| DENND5A (peptide sequence: NGNIAGSPLHSYELLKENETIAR, peptide start residue: 449) (UniProt Q6IQ26) | 0.833 |
| TTC37 (peptide sequence: EAVLSCSQALK, peptide start residue: 324) (UniProt Q6PGP7) | -0.608 |
| RSBN1L (peptide sequence: AHADHIGQGFER, peptide start residue: 570) (UniProt Q6PCB5) | 0.417 |
| ATAD2 (peptide sequence: GCLFYGPPGTGK, peptide start residue: 462) (UniProt Q6PL18) | -0.392 |
| UniProt Q6UWZ7 (peptide sequence: KVEDSEQAVDKLVK, peptide start residue: 232) | 0.445 |
| ARL6IP4 (peptide sequence: IQAMKPMTK, peptide start residue: 166) (UniProt Q66PJ3) | 0.191 |

Quoted from the listing.
Entry of UniProt Q6UXN9 (peptide sequence: YTHAANTVVYSSNK, peptide start residue: 71) under log2 fold change: -0.207
Entry of ZMYM4 (peptide sequence: LDKPHKDLDSR, peptide start residue: 183) (UniProt Q5VZL5) under log2 fold change: 0.569
